Out of some 53,000 sequences screened, about 3,700 (7%) were called active.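 How the source made its calls: active means gene knockdowns whose robust z-score for IL-1 alpha signal is at least 2 or at most -2, so actives lie on both sides; inactive means the rest.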 This is one part of the list.
Assay: Components of the Cytosolic LPS Sensing Pathway: Gene Identification via Genome-wide siRNA Screen;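 further: robust z of the log signal after scaling to non-targeting control siRNA wells of the plate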
Settings: RAW264.7 macrophages, IL-1a HTRF, actives lie on both sides, screened at 100 nM (by protocol), cells primed 5 h with Pam3CSK4 first
Method in brief: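 IL-1a HTRF of supernatants after 24 hour LipidA transfection of Pam3CSK4-primed (5 hours) RAW264.7 cells, 48h post-siRNA transfection (100 nM). Scores: percent of plate negative-control median, then log-based robust z-score.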
In the case of CGUAUUAGUAAUAAGGGCATT against Zc2hc1a, the z-score is reported as inactive: 1.02. For GCACAUGUCUGUGAUUCAATT against St8sia1, the z-score was inactive: -0.166. For GGCAUAUACACAAUUGAUATT against Arsk, the z-score was inactive: -1.27. In the case of GGAUGAGAACAUUGUGAUUTT against Pask, the z-score is reported as inactive: 0.0868. In the case of GGCAUCAAAGGAGAUAAGGTT against Col9a2, the z-score is reported as inactive: -0.0774. With GGACUGAUGAUCAAGCAAATT against Col8a2 the z-score was inactive: -0.387. For GCUUGUGAGUGGAACUUUCTT against Mcm6, the z-score was inactive: 0.62. For GGAAUGUAUGUCUCAGCUCTT against Olfr45, the z-score was inactive: -0.343. For GGCCUUUGACUUAUUCGAUTT against Cetn4, the z-score was inactive: 0.0369. With GCAGCUCUAGGUGUUCAGUTT against Gjc3 the z-score was inactive: 0.955. In the case of CCUACUUUGGACUCUUUCATT against Tnfsf12, the z-score is reported as active: -2.25. With GGCAGAAGAAAUCUUAAAUTT against Dnali1 the z-score was inactive: 0.31. With GGUCCUCAGAUUUUGGGACTT against Sorcs2 the z-score was inactive: 0.432. In the case of GCUACGUGUACCUGGAGUGTT against Cpeb1, the z-score is reported as inactive: -0.502. With GGGAUGCAUCAAAAUACAATT against Pdk3 the z-score was active: 4.82. For GGUAUUCCUCCCUGAGCAUTT against Zfp747, the z-score was inactive: 1.1. With GACUAAGCAGUGGAAGAGCTT against Krtap21-1 the z-score was inactive: 0.0863. In the case of GCUCCUCAUGAUAUUGGCCTT against Nagk, the z-score is reported as inactive: 0.239. In the case of GGAACUCCACUUUCUUUUUTT against Ripply3, the z-score is reported as active: 2.27. With CCUGAUCCUGACUAACCGUTT against Htr2b the z-score was inactive: -0.701. For GGACAGACGUGCACUUAGATT against Garnl3, the z-score was inactive: 0.875. With GUGCCCAGAGUCCUAUCCATT against Sprr2j-ps the z-score was inactive: 0.0491. In the case of GCAGACGAAUAAAUAGCUGTT against Capza1, the z-score is reported as inactive: 1.13. With GGCUUAAGUUAGGCAAACUTT against Crtc3 the z-score was inactive: -0.0675. For GGACUUAACUCGUGGAUCCTT against Fancc, the z-score was inactive: 1.23. In the case of GGCCCAACAUAUAUCAAAUTT against Adck2, the z-score is reported as inactive: 1.38. With GGAAAAGCACAGAUUUCUATT against Ap5m1 the z-score was inactive: 1.31. For GGGAAUGGGUCUUGUAAACTT against Ppat, the z-score was inactive: -1.4. With GGGCAAGUAUGGCUAUGUGTT against Pram1 the z-score was inactive: -0.178. For GGAGGAACAGAGUUUGCACTT against Olfr642, the z-score was inactive: -1.05. With GCACUGGACUUAGGAUGGUTT against Ankrd22 the z-score was active: 2.2. In the case of CCGCUAUAUCACGGAGCAGTT against En1, the z-score is reported as active: 2.45. In the case of GGAUCUGUUUCACUGUGGCTT against Corin, the z-score is reported as inactive: 0.225. With GCUUUCGCCAAUAAAAAAGTT against Slc13a2 the z-score was inactive: 0.265. For GGGUGAUCCAGGUUUGCCATT against Sftpd, the z-score was inactive: -1.94. For GCUCCAGUAUCAAAUCGCUTT against Frmd3, the z-score was inactive: 0.0325. With GGAAAGAAGGGAUUAUCCATT against Faim the z-score was inactive: 0.372. For GGCAACAAUGAGAGAAGAATT against Aimp1, the z-score was inactive: -1.79. In the case of GGAAGACAACAAGGAAGAGTT against Mucl2, the z-score is reported as inactive: 0.738. With GGAAAAUAAGUUGUCUGUCTT against Olfr120 the z-score was inactive: -1.45. With CCGCGUGUGCUCCUUUUUGTT against Zcchc3 the z-score was inactive: -0.627. For GGUCUAUCGUUAUUUGAUATT against Man1a, the z-score was inactive: 0.615. For GGAUCAUCUUCUUUGGGUCTT against Aig1, the z-score was inactive: 1.03. In the case of GGAUGGCUUUGGAGAACACTT against Sat1, the z-score is reported as inactive: -0.25. With GGAUGCUGUCACAAAUGUGTT against Cibar1 the z-score was inactive: -0.983. For GGCACCAUAGAUGUUUGAGTT against Cyp4f16, the z-score was inactive: -1.34. In the case of GGUCACUGAACCUAUUUCCTT against Arhgap15, the z-score is reported as active: -2.56. With CCUCAAAAAGUGGGAUGAGTT against Gnpat the z-score was inactive: -0.475. For GGCAUAUGUCAAUUUGUUATT against Ntsr1, the z-score was inactive: 0.279. With CCAGACAAUCUUUCACUGCTT against Gstm6 the z-score was inactive: 1.19. For GGGAACUUUUUUGAUGGGCTT against Psmb2, the z-score was inactive: -1.13. For GGAUGAUCUGGUCCUUUUGTT against Stx17, the z-score was inactive: -0.53. For GGGUCAAACCCAUACAGCUTT against Dcaf5, the z-score was inactive: -1.22. For CCUGACUCGUAUUAAAACATT against Zbtb7a, the z-score was inactive: -0.546. With GGAUGUCGAGACCAUAAUCTT against Clcn5 the z-score was inactive: 0.883. With GGACAGAGCAUCACAGAAGTT against Tmem154 the z-score was active: -2.33. For GCUGUCCUGCCGUAAUAGATT against Oma1, the z-score was inactive: -0.619. In the case of CGAACAACUUGAAGUCACUTT against Tpm1, the z-score is reported as inactive: -0.464. With GGAAGGACCAAAGCUUUCUTT against Olfr1123 the z-score was inactive: 0.982. In the case of GGUCAAAAUUUCCAAACUCTT against Gpr34, the z-score is reported as inactive: -1.4. For GCCUAAUAAAGAGCCUGUCTT against Pth2, the z-score was inactive: 0.458. With GGUUGUUUUCCCUAGGGUGTT against Sema6a the z-score was inactive: -0.543. For CCUACUGUUUGAGUCCCAGTT against Kmt2b, the z-score was inactive: 1.33. For “GCCCUCAUACCUACUAUGUTT against 4631405J19Rik”, the z-score was inactive: 0.787. With GGGUAGAUUGAUUGUUGGATT against Dcpp1 the z-score was inactive: 1.37. In the case of GGCCAUCUAAUGACCUUCATT against Madd, the z-score is reported as active: -2.7. With GGUUUUCUUUCCUUCUUGGTT against Abcd4 the z-score was inactive: 0.923. In the case of GGCCUGCGUUCAGAAGAGUTT against Wrn, the z-score is reported as active: 3.46. For GCCUAAUUUUGUGUAUUCUTT against Ndrg4, the z-score was inactive: -1.13.

From PubChem BioAssay AID1508600 (Functional Genomics Laboratory (NCATS/FGL), 2020)
